Values of other authors as cited in patent US11603489B2, “Method for inhibiting water permeation in an extraction well of a hydrocarbon oil from an underground reservoir” (priority 2016, dated 2023).
Some of these results come from one statement about several compounds together.

CC(C)(N=NC(C)(C)C(=O)NCCO)C(=O)NCCO [VA086, 2,2′-Azobis[2-methyl-N-(2-hydroxyethyl)propionamide]]
Log P octanol/water: < 0
